Primary screen of a compound library

T. brucei: 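Whole-parasite assay of Trypanosoma brucei over 72 hours; the read-out is not stated. Concentration: 30 µM. Higher reads as stronger inhibition (inferred: compounds with an IC50 in retests scored well above the rest). Values scatter widely below zero; nearly all retest evidence comes from the higher of the two concentrations used. About 64,000 compounds were tested under these conditions; 1.5% (about 940) showed 50% or more at least once.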
Toxoplasma: 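Assay of Toxoplasma gondii numbers, read through their beta-galactosidase reporter with a colour substrate. Compounds at 10 µM. Higher reads as fewer parasites (inferred from which compounds were picked for retests). Size under these conditions: about 67,000 compounds, about 260 of them at 50% or above in at least one test.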
Leishmania in macrophages: 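Cell assay of Leishmania donovani living inside macrophages; the read-out is not stated. Tested at 30 µM. Higher reads as stronger inhibition (inferred: compounds with an IC50 in retests scored well above the rest). Of about 69,000 compounds tested this way, about 1,000 (1.5%) reached 50% or more in at least one test.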

Each number is a percent effect as filed.
How 0% and 100% were set is not recorded. Most values in the screen are low, and negative values occur.
This is an unselected part of the compounds tested.
Two or more numbers in one place are separate tests of the same structure; such repeats can differ widely.

Compound: CCC1CCCCCN1C(=O)c1cc(C#N)c(SC)[nH]c1=O (stereo not given)
T. brucei: -46.18%
Toxoplasma: 15.71%
Leishmania in macrophages: -1.335%

Compound: CCn1cc(S(=O)(=O)NC2CCCN(CC3CCCCC3)C2)cn1 (stereo not given)
T. brucei: -18.73%
Toxoplasma: -6.073%
Leishmania in macrophages: -14.09%

Compound: CC(NC(=O)NCc1ccoc1)c1ccc2c(c1)CC(=O)N2 (stereo not given)
Toxoplasma: 3.805%
Leishmania in macrophages: 14.22%

Compound: Cc1csc(C(=O)N2CC[C@H](Oc3cccnc3C)[C@@H](O)CC2)c1
T. brucei: -24.66%
Toxoplasma: 4.108%
Leishmania in macrophages: -12.72% and 0.1756%

Compound: CN(C)CCN1CCN(CC2CC2)c2ncccc2C1
T. brucei: -35.65%
Toxoplasma: 11.66%
Leishmania in macrophages: 6.88%

Compound: Cc1nc(C)c(CN2CCOC(CN(C)c3cccnn3)C2)s1 (stereo not given)
T. brucei: -7.373%
Toxoplasma: 3.937%
Leishmania in macrophages: 27.81%

Compound: Cc1ccc(S(=O)(=O)NC(=O)c2cccc(OCC(N)=O)c2)s1
T. brucei: -25.18%
Leishmania in macrophages: 36.51%

Compound: Cc1cc(N2CCc3cnc(C)nc3C2)n2nc(C(F)(F)F)nc2n1
T. brucei: -17.36%
Toxoplasma: 6.64%
Leishmania in macrophages: 41.16%

Compound: Cc1cccn2c(CC(=O)N3CCC(CCn4cccn4)CC3)cnc12
T. brucei: -0.1385%
Toxoplasma: 14.4%
Leishmania in macrophages: 14.03%

Compound: COc1c(CNCc2ccc(N3CCOCC3)cc2)c(C)nn1C
T. brucei: -5.287%
Toxoplasma: 3.491%
Leishmania in macrophages: 2.611%

Compound: [H][C@]12CN(c3ccccn3)CCN1C[C@@H](CO)[C@@H]2c1ccccc1
T. brucei: -8.706%
Toxoplasma: 47.11%
Leishmania in macrophages: 9.569%

Compound: Cc1ccsc1C(=O)N1CCc2ncc(CN3CCCC3)n2CC1.O=C(O)C(F)(F)F
T. brucei: -25.09%
Toxoplasma: -7.409%
Leishmania in macrophages: 25.34%

Compound: Cc1nc(C)n(C2CCCN(C(=O)c3ncoc3C(C)C)C2)n1 (stereo not given)
T. brucei: -18.46%
Toxoplasma: -20.94%
Leishmania in macrophages: -9.457%

Compound: CCC(=O)N1CCC2(CC1)COCCN2Cc1ccc(F)cc1.O=C(O)C(F)(F)F
T. brucei: 6.035%
Toxoplasma: -1.824%
Leishmania in macrophages: 31.21%

Compound: CN(C)c1cc2c(nn1)CCN(C(=O)C1COc3ccccc3C1)C2 (stereo not given)
T. brucei: 2.911%
Toxoplasma: -9.186%
Leishmania in macrophages: 21.28%

Compound: CC(C)(C)c1ncc(C(=O)NCCSc2ccccn2)c(O)n1
T. brucei: -13.33%
Toxoplasma: 10.29%
Leishmania in macrophages: 23.04%

Compound: CN(Cc1nc(CC2CC2)no1)CC1COc2ccccc2O1 (stereo not given)
T. brucei: -27.63%
Toxoplasma: 4.16%
Leishmania in macrophages: -8.353%

Compound: [H][C@@]12CN(C(=O)c3cccc(C)n3)C[C@]1([H])[C@@H]2CC(=O)N1CCCC1
T. brucei: -8.043%
Toxoplasma: -8.672%
Leishmania in macrophages: 10.85%

Compound: COCC(C)NC(=O)N(C)Cc1cc(C)on1 (stereo not given)
T. brucei: -16.8%
Toxoplasma: 5.74%
Leishmania in macrophages: 15.56%

Compound: COCCn1cnnc1C1CCCN(c2cnccn2)C1 (stereo not given)
T. brucei: -16.49%
Toxoplasma: 3.6%
Leishmania in macrophages: 12.43% and 9.496%

Compound: CCS(=O)(=O)N1CCc2ncnc(C)c2CC1
T. brucei: -41.8%
Toxoplasma: 13.86%
Leishmania in macrophages: 12.05% and 34.27%

Compound: O=C(O)C(F)(F)F.[H][C@@]12CCN(c3ncccn3)[C@]1([H])CC[C@H](C(=O)NCc1ccco1)O2
T. brucei: 8.817%
Toxoplasma: -3.864%
Leishmania in macrophages: -6.948%

Compound: COCCN(Cc1ccc(F)cc1Cl)C(=O)c1cnn(C)c1C
T. brucei: -63.41%
Toxoplasma: -2.023%
Leishmania in macrophages: 2.946%

Compound: CCCN(C(=O)CCS(=O)(=O)Cc1ccccc1)c1cccc(C)c1
T. brucei: 22.33%
Toxoplasma: 1.469%
Leishmania in macrophages: 3.189%

Compound: CSc1ccc(-c2nc(CN3CCC(C(N)=O)CC3)c(C)o2)cc1
T. brucei: 22.66%
Toxoplasma: 3.928%
Leishmania in macrophages: -4.149%

Compound: CN(C)C(=O)CS(=O)(=O)Cc1ccn(-c2cccc(F)c2)n1
T. brucei: -8.993%
Toxoplasma: 1.654%
Leishmania in macrophages: 17.12%

Compound: Cc1ccc(-c2noc(C3CCN3C(=O)c3ccn(C)n3)n2)s1 (stereo not given)
T. brucei: 1.731%
Toxoplasma: 7.891%
Leishmania in macrophages: -17.11%

Compound: CCN(Cc1nc2c(cnn2C)c(=O)[nH]1)c1cccc(C)c1C
T. brucei: -21.18%
Toxoplasma: 3.481%
Leishmania in macrophages: 1.15%

Compound: CC(Cc1ccco1)NC(=O)CSc1nnc[nH]1 (stereo not given)
T. brucei: -15.46%
Toxoplasma: -10.32%
Leishmania in macrophages: 9.47%

Compound: Cc1ccc(NC(=O)NCCn2cnc(C)c(C)c2=O)cc1F
T. brucei: -31.43%
Toxoplasma: -15.92%
Leishmania in macrophages: -18.08%

Compound: Cc1cc(N(Cc2ccon2)S(C)(=O)=O)ccc1Br
T. brucei: -48.05%
Toxoplasma: 2.387%
Leishmania in macrophages: -6.502%

Compound: CN(C)C1CCN(C(=O)c2ccc(Cn3ccccc3=O)o2)CC1
T. brucei: 18.57%
Toxoplasma: 2.369%
Leishmania in macrophages: 11.95%

Compound: CCn1cc(NC(=O)C2CCN(CC(=O)NCC(C)C)CC2)cn1
T. brucei: -16.97%
Toxoplasma: 0.2288%
Leishmania in macrophages: 18.42%

4 of the entries, repeated:

{"compound": "Cc1ccsc1C(=O)N1CCc2ncc(CN3CCCC3)n2CC1.O=C(O)C(F)(F)F", "T. brucei": -25.09, "Toxoplasma": -7.409, "Leishmania in macrophages": 25.34}
{"compound": "Cc1cc(N2CCc3cnc(C)nc3C2)n2nc(C(F)(F)F)nc2n1", "T. brucei": -17.36, "Toxoplasma": 6.64, "Leishmania in macrophages": 41.16}
{"compound": "CCn1cc(NC(=O)C2CCN(CC(=O)NCC(C)C)CC2)cn1", "T. brucei": -16.97, "Toxoplasma": 0.2288, "Leishmania in macrophages": 18.42}
{"compound": "CCC1CCCCCN1C(=O)c1cc(C#N)c(SC)[nH]c1=O", "stereo": "stereo not given", "T. brucei": -46.18, "Toxoplasma": 15.71, "Leishmania in macrophages": -1.335}

Data taken from ChEMBL document CHEMBL3988442, “University of Dundee, Small-Polar-MMV Screening Library” (2021).